# In US4935419A, “Novel 1-piperazinecarboxamide derivatives” (priority 1983, dated 1990):
# Columns and labels:
# [1] = test system: male NMRI mice (isolation induced aggressive behaviour); experiment: Isolation induced aggressive behaviour test; assay type: in vivo; details: Mus musculus, sc, 0.5 h, read-out: ED50, isolation induced aggressive behaviour test
# Text: Test 1: Isolation induced aggressive behaviour test
# Male mice subjected to prolonged isolation develop aggressive behaviour against each other when paired (Yen, C. Y. et al., Arch. Int. Pharmacodyn. 123, 179, (1959): Valzelli, L., Adv. Pharmacol. 5, 79 (1967)). All clinically used neuroleptics and antidepressants studied in this test inhibit this aggressive behaviour although their activity may differ. […]. The clinical correlation of this test indicates tranquillizing and anxiolytic activities as well as antiaggressive properties as such (Duncan, R. L. et al., J Med. Chem. 13, 1 (1970)).
# This type of aggression is interesting because it is known that this kind of emotional behaviour might be located in limbic structures in the brain (MacLean, P.D., Psychosom. Med. 11, 338 (1949)).
# Every week male NMRI mice, weighing 20-22 g, were isolated in Makrolon cages for three weeks with diet and water ad libitum. A piece of cardboard was placed between the cages to prevent visual contact.
# To test aggressiveness the mice were paired in a neutral area, a beaker (14 cm high and diameter 14 cm). A pair is considered aggressive if both the animals show clear signs of fighting within 5 minutes. This fighting is characterized by biting and vocalization. […] Animals showing no aggression are discarded. […]. The test substance is administered s.c. (0.2-0.4 ml/20 g). […]
# [2] = test system: female NMRI mice (writhing behaviour); experiment: Writhing test (acetic acid); assay type: in vivo; details: Mus musculus, sc, read-out: ED50, writhing test
# Experimental: The writhing test is a frequently used test of analgetic properties (Witkin, L. B. et al., J. Pharmacol. Exp. Ther. 133, 400 (1961)). If acetic acid (0.5%, 15 ml/kg) is injected intraperitoneally in mice (NMRI) they will without exception develop a writhing behaviour characterized by stretching their hind legs. The drugs to be tested were administered subcutaneously to 6 female mice at each dose 20 minutes before the injection of the acetic acid. After 10 minutes the behaviour of the mice was studied in 5 minutes. The ED50 -value is the dose blocking the writhing behaviour in 50% of the animals during the 5 minutes study period. [drawing 12]
Compound,ED50 [1] [mg/kg],ED50 [2] [mg/kg]
CN1C(=O)CN=C(c2ccccc2)c2cc(Cl)ccc21 [Diazepam],6.7,–
CN1CC[C@]23c4c5ccc(O)c4O[C@H]2[C@@H](O)C=C[C@H]3[C@H]1C5 [Morphine],–,1.6
